Patent US20080119561A1, “METHODS FOR PREVENTING OR DELAYING CATHETER- BASED RESVASCULARIZATION” (Pfizer Inc, priority 1998, published 2008)

System: patients with CAD and LDL-C≧130 mg/dL
Details: duration of the 18-month trial

Compound: CC(C)c1c(C(=O)Nc2ccccc2)c(-c2ccccc2)c(-c2ccc(F)cc2)n1CC[C@@H](O)C[C@@H](O)CC(=O)O [atorvastatin]
- patients able to remain on drug therapy alone without any adverse cardiovascular events: 87%
